The text below walks through data of US7432306B2, “Method for preparing novel transcription factors and use” (NRL Pharma, Inc., priority 2005, dated 2008).

Series [1] relates to db/db mice. As to the kind of experiment: Action of MAC-DEA on db/db mouse. In kind it is in vivo. The protocol:
Eighteen 7-week-old male db/db mice were bred for one week by allowing mouse standard feed and water ad libitum. The mice were randomly classified into three groups of six mice and each group was housed in a urine collection rat cage and the intake of feed, the amount of drinking water, the amount of urine and the amount of urine sugar excreted were determined everyday. Feed CE-2 was given to the first group as a control group, and feed CE-2 mixed with 0.05% of 4-O-methylascochlorin diethylacetal (MAC-DEA) and feed CE-2 mixed with 0.1% of MAC-DEA were given to the second group and the third group, respectively. The mice were allowed feed and drinking water ad libitum and on the 7th day, blood was collected and the blood sugar, the serum neutral fat and the serum insulin were determined.

Series [2] deals with ICR male mice. As to the kind of experiment: Mouse serum cholesterol lowering action. It is filed as in vivo. The following applies: one week. The protocol:
Thirty 5-week-old ICR male mice were bred by allowing mouse standard feed and water ad libitum. The mice were randomly classified into three groups, and one group was taken as a control group to which no drug was administered, and feed containing 0.1% of 4-O-methylasco-chlorin diethylacetal (MAC-DEA) and feed containing 0.05% of MAC-DEA were given to the other two groups, respectively. The body weight, the intake of feed and the amount of drinking water were measured every other day. One week after giving feed, blood was collected and the total cholesterol in serum and the neutral fat were determined.

Series [3] relates to Ehrlich ascites carcinoma. In words: Inhibition of Ehrlich solid tumor. It is filed as in vivo, mouse. The following applies: 7 days, 21st day. The protocol: Eighteen five-week-old ICR male mice were subcutaneously inoculated with 10^6 cells of Ehrlich ascites carcinoma […] and after 24 hours, and the mice were classified into three groups of six mice, and 4-O-methylascochlorin diethylacetal (MAC-DE) was suspended in 0.2% Tween-80 and 1 mg/kg and 4 mg/kg were orally administered to the first group and the second group twice a day at 9:00 and 20:00, respectively, and a MAC-DE-free Tween-80 aqueous solution was given to the third group as a control group. The administration was continued for successive 7 days and after completion of the administration, the mice were fed for two weeks. On the 21st day, a nodular tumor was removed from the mice and the body weight was determined and the effect of MAC-DE on the inhibition of tumor growth was examined.

Regarding `CCOC(OCC)c1c(C)c(Cl)c(OC)c(C/C=C(C)/C=C/[C@@]2(C)[C@H](C)CCC(=O)[C@@H]2C)c1O` [MAC-DEA, 4-O-methylascochlorin diethylacetal], the “Increase in Weight” value in series [1] (0.05% in feed CE-2, db/db mice) came out at 5.0 g/mouse; in series [1] (0.1% in feed CE-2, db/db mice), 4.8 g/mouse. In addition, the “Intake of Feed” value was 6.9 g/mouse in series [1] (0.05% in feed CE-2, db/db mice) and 6.4 g/mouse in series [1] (0.1% in feed CE-2, db/db mice). The “Increase in Body Weight” value in series [2] (0.05% in feed) is on record as 7.1 g/mouse; in series [2] (0.1% in feed) it was 6.9 g/mouse; in series [3] (1 mg/kg oral twice a day), 10.8 g/mouse; in series [3] (4 mg/kg oral twice a day), 9.2 g/mouse.
